{"source": "PubChem BioAssay AID1259308 (NCATS, 2017)", "test": "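Knock-downs that increase output of a recombinant reporter protein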 (primary screen)", "cells": "human HEK293 embryonic kidney cells stably expressing firefly luciferase (HEK-CMV-Luc2-Hygro)", "knock-down reagent": "single siRNA against human genes, 0.8 pmol siRNA per well", "timing": "72 h", "detection": "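Luciferase light (ONE-Glo) measured on one replicate plate set and viability (CellTiter-Glo) on the other, scaled to a negative control siRNA, with robust z-scores and luciferase per cell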", "scale": "total luciferase, z-score and total luciferase, % of control: higher = more reporter protein produced", "active means": "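An siRNA counts as active if its total luciferase robust z-score exceeds 3; genes with two or more such siRNAs out of three were retested with fresh siRNAs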", "calls": "active = raised luciferase; inactive = no rise", "note": "In all, the deposit lists about 59,000 reagents; below is a part drawn at random. Of all reagents, about 1,510 (2.6%) got an active call. 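Calls use total luciferase alone and ignore viability, so some active siRNAs may act by altering cell number.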 Reagents against one gene are numbered here. Further read-outs or replicates are left out here. Reagent sequences are not shown."}
{"gene": "XAF1", "reagent no.": 1, "total luciferase, z-score": -1.09, "total luciferase, % of control": 60.2, "Call": "inactive"}
{"gene": "XAF1", "reagent no.": 2, "total luciferase, z-score": 1.1, "total luciferase, % of control": 104, "Call": "inactive"}
{"gene": "XAF1", "reagent no.": 3, "total luciferase, z-score": -2.38, "total luciferase, % of control": 34.5, "Call": "inactive"}
{"gene": "CEND1", "reagent no.": 1, "total luciferase, z-score": -0.582, "total luciferase, % of control": 70.3, "Call": "inactive"}
{"gene": "CEND1", "reagent no.": 2, "total luciferase, z-score": 0.106, "total luciferase, % of control": 84, "Call": "inactive"}
{"gene": "CEND1", "reagent no.": 3, "total luciferase, z-score": -0.929, "total luciferase, % of control": 63.4, "Call": "inactive"}
{"gene": "ZNF251", "reagent no.": 1, "total luciferase, z-score": 0.904, "total luciferase, % of control": 99.9, "Call": "inactive"}
{"gene": "ZNF251", "reagent no.": 2, "total luciferase, z-score": 0.363, "total luciferase, % of control": 89.1, "Call": "inactive"}
{"gene": "ZNF251", "reagent no.": 3, "total luciferase, z-score": -0.512, "total luciferase, % of control": 71.7, "Call": "inactive"}
{"gene": "RIC8B", "reagent no.": 1, "total luciferase, z-score": 0.0896, "total luciferase, % of control": 83.7, "Call": "inactive"}
{"gene": "RIC8B", "reagent no.": 2, "total luciferase, z-score": -0.473, "total luciferase, % of control": 72.5, "Call": "inactive"}
{"gene": "RIC8B", "reagent no.": 3, "total luciferase, z-score": 0.625, "total luciferase, % of control": 94.3, "Call": "inactive"}
